Laboratory results: publication PMC9161444 (Langmuir, 2022)
Several values for one entry are separate records, joined by “and”; a condition that tells them apart may be missing. Equal entries are not always repeated. For some of these results: Strings that start with PEPTIDE1 are HELM notation: dots part the residues, brackets hold end groups and non-standard residues.

What was measured:
[1] = Selective index and averaged ratios from MIC, EC50 and CAC; conditions: SI = sum of EC50 (HDFa, NIH/3T3, hRBC) / sum of MIC (E. coli, S. aureus, C. albicans)
[2] = Lipid monolayer model, surface pressure change (Langmuir trough); conditions: spread between DPPG and DPPC monolayer interactions
[3] = general procedure: Fmoc solid-phase peptide synthesis; Rink-amide resin; OXYMA/DIC; conditions: whole synthesis, 220 nm

Row | Compound | selective index [1] | δ[Δπ] = ΔπDPPG – ΔπDPPC [2] | final HPLC purity [3]
1 | CCCCCCCCCCCC[N+](C)(C)C.[Br-] [C12TAB, dodecyltrimethylammonium bromide] | 2.0 ± 0.9 | 5 mN/m and 5 ± 4 mN/m | 
2 | CD3(CD2)12CO-KKGGII-NH2 |  |  | > 95%
3 | PEPTIDE1{[Myr].K.K.G.G.I.I.[am]}$$$$V2.0 |  |  | > 95%
